# Values from PubChem BioAssay AID686937 (Drosophila RNAi Screening Center, 2013)
# Assay: 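Genes whose loss weakens secretory pathway function in fly cells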 (primary screen)
# System: Drosophila S2 cells expressing secreted horseradish peroxidase
# Reagents: long dsRNA against Drosophila genes
# Timing: about 5.5 days (5 days dsRNA, then 12 h reporter induction)
# Treatment: reporter expression induced after 5 days of dsRNA, read 12 h later; inducer not stated
# Detection: 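After 5 days of dsRNA and 12 h of reporter induction, medium peroxidase read by chemiluminescence and scored as per-plate z-score; higher values mean more reporter released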
# Reading the numbers: z-score: higher = more reporter secreted into medium
# The screen tested about 23,000 reagents; below is a random part of those with a known target gene and a result. 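Reduced-secretion tags in replicate 1 do not always agree with the z-scores; no criterion for assigning the tags was given.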 A plus sign joins genes that one reagent is predicted to hit. Further read-outs or replicates are left out here. The record does not give: the amount of reagent.
gene,amplicon,"z-score, replicate 1"
CG15725,DRSC19691,0.24
sick (sickie),DRSC02090,-0.24
sick (sickie),DRSC02300,0.1
sick (sickie),DRSC02301,0.49
sick (sickie),DRSC02302,0.45
sick (sickie),DRSC02303,0.66
sick (sickie),DRSC02306,0.69
asRNA:CR43468 + Lfg,DRSC06853,0.37
CG10862,DRSC08170,-0.19
Hsdl2 (Hydroxysteroid dehydrogenase like 2),DRSC15839,0.23
Patr-1 (Protein associated with topo II related - 1),DRSC14159,-0.21
CG31805,DRSC01563,-1.17
sax (saxophone),DRSC07675,0.14
CG9630,DRSC16527,0.23
lva (lava lamp),DRSC18403,-0.17
CycT (Cyclin T),DRSC11124,-5.92
Tsp66E (Tetraspanin 66E),DRSC09683,0.28
CG33467,DRSC05525,0.57
CG33467,DRSC22651,-0.53
Fdx1 (Ferredoxin 1),DRSC11167,0.61
CG33768,DRSC11715,-0.13
CG2641,DRSC15441,0.06
RhoGEF2 (Rho guanine nucleotide exchange factor 2),DRSC07531,-0.02
Nubp1 (NUBP iron-sulfur cluster assembly factor 1),DRSC02639,0.2
Boh1 (Buddy of Hmr 1),DRSC14487,0.26
CG5969,DRSC11789,-0.21
Rrp42,DRSC07161,-0.7
Ccp84Af,DRSC12591,0.28
CG13243,DRSC01920,-0.98
CG9578,DRSC20694,0.27
CG12725,DRSC19501,0.5
exex (extra-extra),DRSC10972,0.2
CG5693,DRSC02878,0.19
Got2 (Glutamate oxaloacetate transaminase 2),DRSC00643,0.11
Fkbp39 (FK506-binding protein 39kD),DRSC16667,-0.74
CG8289,DRSC20101,0.14
asRNA:Eig63F-2 + Eip63F-1,DRSC21446,0.02
Tsp39D (Tetraspanin 39D),DRSC03099,0.11
Cad87A (Cadherin 87A),DRSC16161,0.36
Src42A (Src oncogene at 42A),DRSC04865,0.4
Src42A (Src oncogene at 42A),DRSC04915,-0.16
CG13511,DRSC04153,0.04
Ppr-Y,DRSC20892,0.01
Tre1 (Trapped in endoderm 1),DRSC18726,-0.1
shv (shriveled),DRSC00640,0.22
shv (shriveled),DRSC22122,-0.29
Hex-t2 (Hexokinase testis 2),DRSC22517,0.67
CG3987,DRSC15531,0.15
stil (stand still),DRSC07699,0.2
CG3097,DRSC18275,0.43
His1:CG33816 + His1:CG33828 + His1:CG33819 + 21 more,DRSC21266,-0.95
rump (rumpelstiltskin),DRSC16480,-0.03
"ATPsynB (ATP synthase, subunit B)",DRSC09659,-1.85
Naa15-16 (N(alpha)-acetyltransferase 15/16),DRSC19440,0.21
Naa15-16 (N(alpha)-acetyltransferase 15/16),DRSC22846,-0.06
CG2701,DRSC18590,0.38

Single entries from above.
Patr-1 (Protein associated with topo II related - 1) [DRSC14159], z-score, replicate 1: -0.21
CG33467 [DRSC22651], z-score, replicate 1: -0.53
CG9630 [DRSC16527], z-score, replicate 1: 0.23
